From patent US20260130970A1, “PRESERVED GIP/GLP AGONIST COMPOSITIONS” (ELI LILLY AND COMPANY, priority 2022, published 2026)
Entries after “also recorded” stand apart in the source; their conditions may differ.

Test system: tirzepatide
Assay: Solution NMR (1H-13C HSQC, ligand-observed NMR) of the interaction between tirzepatide and preservatives
Assay type: binding

Row | Structure (SMILES) | interaction of preservative with tirzepatide (1H-13C HSQC spectrum overlay, NMR)
1 | OCc1ccccc1 [benzyl alcohol] | No significant differences between the spectra; also recorded: no significant interaction with tirzepatide
2 | Oc1ccccc1 [phenol] | Significant differences between the spectra
